42 sequences from paper PMC7819943, “Rice protein-binding microarrays: a tool to detect cis-acting elements near promoter regions in rice” can be followed below.

The other results are listed elsewhere or left out.

This experiment deals with T1, OsSMF1 (Oryza sativa, UniProt Q6ZLB0 1-436).
T1 sequence: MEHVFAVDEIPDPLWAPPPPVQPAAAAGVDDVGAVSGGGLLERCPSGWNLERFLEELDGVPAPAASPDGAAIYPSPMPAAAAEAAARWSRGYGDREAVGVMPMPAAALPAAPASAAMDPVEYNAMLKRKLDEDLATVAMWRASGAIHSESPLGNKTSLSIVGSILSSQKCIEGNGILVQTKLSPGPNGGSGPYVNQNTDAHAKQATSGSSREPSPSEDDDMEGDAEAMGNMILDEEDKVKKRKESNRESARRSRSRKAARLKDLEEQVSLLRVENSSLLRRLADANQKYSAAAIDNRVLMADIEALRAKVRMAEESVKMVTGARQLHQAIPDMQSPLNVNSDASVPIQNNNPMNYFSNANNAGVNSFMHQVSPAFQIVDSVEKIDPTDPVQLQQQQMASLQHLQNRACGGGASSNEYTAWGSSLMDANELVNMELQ
In words: protein-binding microarray (RPBM); PBS, 2% BSA, 51.3 ng/ul salmon testes DNA, 50 uM zinc acetate, 200 nM TF, 25 C, 1 h; high values mean tight binding. The settings on record: protein: recombinant; tags: N-terminal polyhistidine and DsRed monomer fusion (pET32a); chain copies: 2; label: CyDye5-dUTP incorporated in the synthesized complementary strand; 3' TTTTT single-stranded linker to array surface; dsDNA, one strand shown. The method, boiled down: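 Per-feature fluorescence intensity (arbitrary units), read on an Axon 4000B scanner, is the binding signal. Transcription factors carrying an N-terminal polyhistidine tag and DsRed fusion were expressed in E. coli BL21-CodonPlus and purified on Ni–NTA. A custom Agilent array, made double-stranded by primer extension with Cy5-dUTP and blocked with 2% BSA, was incubated with 200 nM protein in PBS, 2% BSA, salmon testes DNA and 50 µM zinc acetate at 25 °C for 1 h and then washed.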
For “TCATCTCACCATCCATCGATCACACATCAGCTAGCTCGATCGGAGTCACCTAGTGCAG”, the binding signal is 4810 fluorescence intensity (a.u.). As to “AAAGATCCATGTAGGCGCCACATCAGCCAAAACCGGGGACCGGAGTCACCTAGTGCAG”, the binding signal is 9110 fluorescence intensity (a.u.).

As for “GCCATACACGTACGGCAAATTCCACCCAAAATCGCTTTCACGGAGTCACCTAGTGCAG”, the binding signal was 21800 fluorescence intensity (a.u.).

Turning to “TTGCTCTAAGCGATCGTTTCGAAAACGACATATTTGTAAACGGAGTCACCTAGTGCAG”, the binding signal is 3890 fluorescence intensity (a.u.). The value for “AGCAATGACAACGTGTTCGGGCGCCGTGACCCCTTTTGGGCGGAGTCACCTAGTGCAG” was 3690 fluorescence intensity (a.u.); that for “GCGGCGGCGGCGTTCTTGAGCTCGAGGTAGACCGAGACGACGGAGTCACCTAGTGCAG” was 5350 fluorescence intensity (a.u.); that for “CTTCATGTTCGACCCGTAGTACAGCTATTCTTCAACTCTCCGGAGTCACCTAGTGCAG” was 3440 fluorescence intensity (a.u.). The value for “ATCTAATTGCCACATAAGCACTACGTCAATAACACGTTAGCGGAGTCACCTAGTGCAG” was 10100 fluorescence intensity (a.u.).

With “TTCTTCGTGTATGATTTATTTAAACAAAATGTGTCATTTCCGGAGTCACCTAGTGCAG”, the binding signal was 3400 fluorescence intensity (a.u.).

Regarding “AGCCAGCCAAGCCGATCGATCGACCAACAGGAAGGCAAGGCGGAGTCACCTAGTGCAG”, the binding signal was 27800 fluorescence intensity (a.u.). As to “CAAATTGGACTAGATAAAGAGTAGAAGACACGTCAGCGAACGGAGTCACCTAGTGCAG”, the binding signal is 14300 fluorescence intensity (a.u.). The value for “AATTTTCTCTCTCCAATAGAATCACGCGTCACGTAATCCCCGGAGTCACCTAGTGCAG” was 5360 fluorescence intensity (a.u.); that for “CTTCAGTTTTGCATCTCCACCCTTCCTCTCTTGCAGCAGCCGGAGTCACCTAGTGCAG” was 18300 fluorescence intensity (a.u.). For the sequence “GCAGGGAATGTTCCATTTGCCACGTTATGTGCTCTTAGCTCGGAGTCACCTAGTGCAG”, the binding signal was 11100 fluorescence intensity (a.u.). For the sequence “ATTAAGGTCTGAAAGTTTGCATAGTCAACCTCTTCCATCTCGGAGTCACCTAGTGCAG”, the binding signal was 4140 fluorescence intensity (a.u.).

Consider “ACCTCTCCAATCCCAAGGCCAACAATTTATGCAACAGCACCGGAGTCACCTAGTGCAG”, for which the binding signal is 3280 fluorescence intensity (a.u.). For the sequence “TTCTTGCTGGGATTTGATGCAGGCATTGAGACATTGATGACGGAGTCACCTAGTGCAG”, the binding signal is 3440 fluorescence intensity (a.u.). The value for “CATTAATCTTCTCCTCACGCTTAGTCACCATTTCTATACTCGGAGTCACCTAGTGCAG” was 9380 fluorescence intensity (a.u.); that for “CCCTCGCGCCGTCGCCGTCGCCAAGAGCCGCCACTTCCGCCGGAGTCACCTAGTGCAG” was 3200 fluorescence intensity (a.u.). The value for “CCTCAGCGCCACATCAACTGGCGCTAAATGTCGTGTCACCCGGAGTCACCTAGTGCAG” was 8070 fluorescence intensity (a.u.). The value for “GGTACAATGTTATGTGATCTTGCTCAGGTGGCAGATGGTCCGGAGTCACCTAGTGCAG” was 3380 fluorescence intensity (a.u.); that for “CATAACAACCACTAAAACATTATGAATATTTTGTACATACCGGAGTCACCTAGTGCAG” was 22800 fluorescence intensity (a.u.). For “TGTGTTGGTGTTATGAGGTGTTGGATTAGATGAGAGGAATCGGAGTCACCTAGTGCAG”, the binding signal is 4280 fluorescence intensity (a.u.). The value for “CCGACGCCACCGCCCACGTGTCCTCTCCTCCCACCCGCCACGGAGTCACCTAGTGCAG” was 9460 fluorescence intensity (a.u.); that for “AGATCATTAGTTAGCACATATCATCCACATCATCCTATTTCGGAGTCACCTAGTGCAG” was 5980 fluorescence intensity (a.u.).

On to “CAAAAGAGAGACTTGCCTGAGTTTCTGTAGCCGGTACTATCGGAGTCACCTAGTGCAG”, for which the binding signal was 4350 fluorescence intensity (a.u.).

“CTTCTTTGGTCCCTAGGTTGCTGGCATTTTGGTGCCTACTCGGAGTCACCTAGTGCAG”: the binding signal was 3870 fluorescence intensity (a.u.). As to “CCCGTGCCTAGACCACGTCCATGCGTGTATTAATTAGTGTCGGAGTCACCTAGTGCAG”, the binding signal is 3420 fluorescence intensity (a.u.).

Consider “ACTCCCATGTCAATGTGACTCATCTTCCCAATTAAAATAGCGGAGTCACCTAGTGCAG”, for which the binding signal is 8080 fluorescence intensity (a.u.). The value for “AATTCTTCCTGCCTCATAACGCACGAACGCACGTCACGAACGGAGTCACCTAGTGCAG” was 3420 fluorescence intensity (a.u.); that for “AGTCCTGGACGCGTCGACGCGTGGTGACGACGTGTCGACGCGGAGTCACCTAGTGCAG” was 9290 fluorescence intensity (a.u.); that for “GCAGATCTGACAGCTGACTACAGTCATGTGAACTATTCGTCGGAGTCACCTAGTGCAG” was 4930 fluorescence intensity (a.u.). As for “TGATTGTGACACTAGCACGACGCACTTTCCTCTATATACACGGAGTCACCTAGTGCAG”, the binding signal is 3630 fluorescence intensity (a.u.). As to “AATACTCCAAATTAGCGTCCAAACATCCGATATGACATGGCGGAGTCACCTAGTGCAG”, the binding signal is 4090 fluorescence intensity (a.u.). For “GGAGAGTTCATTTGCGGGTGCACGTGCAGTGCAGTCTTTTCGGAGTCACCTAGTGCAG”, the binding signal was 22800 fluorescence intensity (a.u.).

As for “TTTCTCGGAATTTCTGGAAATTTTCTTGGAATTAGTAGAACGGAGTCACCTAGTGCAG”, the binding signal was 65500 fluorescence intensity (a.u.).

Consider “CCTCCTCCTCCTCTACGTCGGCCCACGACTTCTTCTCCGGCGGAGTCACCTAGTGCAG”, for which the binding signal was 3920 fluorescence intensity (a.u.). Regarding “CAAAATGCTGCCGACTCGGCCAACGCCACGCCCACACACCCGGAGTCACCTAGTGCAG”, the binding signal is 3680 fluorescence intensity (a.u.). Take “TAACATCATGTCTAGTTTGTTACCCTATCAAGACTAAAACCGGAGTCACCTAGTGCAG”: the binding signal was 42600 fluorescence intensity (a.u.). In the case of “GCCAATGCCATGTCCTCTGCGGCCTGCTTGCTGGTGAACTCGGAGTCACCTAGTGCAG”, the binding signal is 46600 fluorescence intensity (a.u.).

On to “ACGGCAAGTTGCACACATGACGTGTCATTTTCCAAATTGCCGGAGTCACCTAGTGCAG”, for which the binding signal was 29800 fluorescence intensity (a.u.).

Regarding “AATATAAATTCATATTAGTCAGTTATACTAGGGTTTGGTGCGGAGTCACCTAGTGCAG”, the binding signal was 3240 fluorescence intensity (a.u.).
